These substances were tested on HLA molecules from shock-frozen tissue samples (assay: Identification and quantitation of tumor associated peptides presented on the cell surface (HLA immunoprecipitation, LC-MS)). Conditions: cancer entities on which the peptide was detected by LC-MS of HLA ligands.
Parameters: species or system human

Row | Substance | Peptide Presentation on cancer entities
1 | 194 (PVLICLALSK; listed as Homo sapiens) [compound 194] | AML, BRCA, CCC, CLL, CRC, GBM, GC, HCC, HNSCC, MEL, NHL, NSCLCadeno, NSCLCsquam, OSCAR, PACA, RCC, SCLC, UBC, UEC
2 | 13 (AVAFFVLPSK; listed as Homo sapiens) [compound 13] | NHL
3 | 54 (GVTITKTLK; listed as Homo sapiens) [compound 54] | BRCA, MEL
4 | 137 (TVYVAMCHKF; listed as Homo sapiens) [compound 137] | OSCAR
5 | 41 (RLGAARGQLR; listed as Homo sapiens) [compound 41] | NSCLCadeno
6 | 77 (VVDDSQLPK; listed as Homo sapiens) [compound 77] | CCC, CRC, MEL, NHL, NSCLCsquam, RCC
7 | 128 (KIKKPLSYR; listed as Homo sapiens) [compound 128] | UEC
8 | 209 (KILDRVLSRY; listed as Homo sapiens) [compound 209] | AML
9 | 66 (RVKEIVINK; listed as Homo sapiens) [compound 66] | MEL
10 | 104 (AVVQGLVEK; listed as Homo sapiens) [compound 104] | HNSCC
11 | 60 (VVFPFPVNKR; listed as Homo sapiens) [compound 60] | AML
12 | 118 (SLRGSFPILY; listed as Homo sapiens) [compound 118] | CCC, MEL
13 | 71 (VLYELGIIGNNK; listed as Homo sapiens) [compound 71] | MEL
14 | 61 (SLYDSEPRKK; listed as Homo sapiens) [compound 61] | AML, CCC, GBC, GBM, HNSCC, MEL, NHL, OSCAR, UBC, UEC
15 | 117 (TVFVELWLK; listed as Homo sapiens) [compound 117] | AML
16 | 87 (RLASVGLDAK; listed as Homo sapiens) [compound 87] | HCC
17 | 221 (RLAVSTRGK; listed as Homo sapiens) [compound 221] | NSCLCadeno
18 | 156 (VSLGIAVSK; listed as Homo sapiens) [compound 156] | AML, CCC, HNSCC
19 | 65 (RTIEELQNK; listed as Homo sapiens) [compound 65] | HNSCC
20 | 68 (KGPMAGILAY; listed as Homo sapiens) [compound 68] | AML, NHL
21 | 98 (VSVAGSILAK; listed as Homo sapiens) [compound 98] | GBC
22 | 49 (ITAPLMPLGK; listed as Homo sapiens) [compound 49] | CCC, HNSCC
23 | 72 (KLYPQCLQK; listed as Homo sapiens) [compound 72] | NHL
24 | 31 (HAFFPKTHR; listed as Homo sapiens) [compound 31] | UEC

Row | Substance | Peptide Presentation on cancer entities
25 | 20 (LLPTVLIKK; listed as Homo sapiens) [compound 20] | AML, HCC, HNSCC, NSCLCother, OSCAR, UEC
26 | 102 (RLLQHTPSAR; listed as Homo sapiens) [compound 102] | CRC
27 | 52 (GMYEYGSIEK; listed as Homo sapiens) [compound 52] | MEL
28 | 33 (KLLEDMVEK; listed as Homo sapiens) [compound 33] | UEC
29 | 148 (RIGNKGIYK; listed as Homo sapiens) [compound 148] | AML
30 | 206 (RLYEMILQR; listed as Homo sapiens) [compound 206] | AML, BRCA, CLL, HCC, MEL, NHL, NSCLCadeno, NSCLCsquam, OSCAR, RCC, UEC
31 | 191 (SLYNLGGAK; listed as Homo sapiens) [compound 191] | HNSCC, OSCAR, UEC
32 | 151 (KVASFTVIGY; listed as Homo sapiens) [compound 151] | CCC, NHL
33 | 10 (KARDLRTPK; listed as Homo sapiens) [compound 10] | CRC
34 | 8 (FSNNHPSTPK; listed as Homo sapiens) [compound 8] | MEL
35 | 149 (TVFLSKYLKK; listed as Homo sapiens) [compound 149] | UEC
36 | 160 (RLLPGKVVWK; listed as Homo sapiens) [compound 160] | UEC
37 | 213 (KLYPTHACR; listed as Homo sapiens) [compound 213] | BRCA
38 | 97 (RVRALGSQY; listed as Homo sapiens) [compound 97] | CCC
39 | 37 (EVILTTKTPK; listed as Homo sapiens) [compound 37] | MEL
40 | 11 (PLPRPGAVLK; listed as Homo sapiens) [compound 11] | NHL
41 | 135 (TFKSVLLNK; listed as Homo sapiens) [compound 135] | RCC
42 | 132 (ASSFRPLLSK; listed as Homo sapiens) [compound 132] | MEL
43 | 224 (SLYDGFLSY; listed as Homo sapiens) [compound 224] | GBM, NSCLCadeno
44 | 48 (KGWNGQIFK; listed as Homo sapiens) [compound 48] | AML
45 | 78 (KTGTFVLYKS; listed as Homo sapiens) [compound 78] | HNSCC, NHL, SCLC
46 | 140 (RLLAAGQVIR; listed as Homo sapiens) [compound 140] | CCC, HCC, HNSCC, OSCAR
47 | 59 (KINQYIIKK; listed as Homo sapiens) [compound 59] | MEL
48 | 21 (SSLAELIAK; listed as Homo sapiens) [compound 21] | HNSCC

Row | Substance | Peptide Presentation on cancer entities
49 | 96 (RAVSVNPGK; listed as Homo sapiens) [compound 96] | CCC, GBC, HNSCC
50 | 30 (ILDSSLLK; listed as Homo sapiens) [compound 30] | NHL
51 | 130 (KANSGNTFKY; listed as Homo sapiens) [compound 130] | HCC
52 | 4 (RGLSGIGAFR; listed as Homo sapiens) [compound 4] | HNSCC
53 | 82 (CLANYTVNK; listed as Homo sapiens) [compound 82] | UEC
54 | 62 (GIFPKIMPK; listed as Homo sapiens) [compound 62] | HCC
55 | 112 (ASLAAAVLAK; listed as Homo sapiens) [compound 112] | MEL
56 | 208 (KTGWFTLLY; listed as Homo sapiens) [compound 208] | BRCA, HCC
57 | 188 (SSLPRAFQK; listed as Homo sapiens) [compound 188] | CCC, HNSCC
58 | 110 (IIFIPATILLK; listed as Homo sapiens) [compound 110] | AML, HCC
59 | 174 (KMMKRLMTVEK; listed as Homo sapiens) [compound 174] | NSCLCother
60 | 100 (TTNARILAR; listed as Homo sapiens) [compound 100] | MEL
61 | 64 (SVLSRMLVR; listed as Homo sapiens) [compound 64] | MEL, UEC
62 | 180 (RLKMAQESVSK; listed as Homo sapiens) [compound 180] | MEL
63 | 193 (IVYPSATDKTK; listed as Homo sapiens) [compound 193] | BRCA, HNSCC
64 | 85 (IMPTFDLTK; listed as Homo sapiens) [compound 85] | HCC
65 | 6 (SIFGLAPGK; listed as Homo sapiens) [compound 6] | UEC
66 | 86 (RVSGSGGGGAGK; listed as Homo sapiens) [compound 86] | NHL
67 | 219 (ALERKFRQK; listed as Homo sapiens) [compound 219] | CRC, UEC
68 | 32 (LLDAEPPILY; listed as Homo sapiens) [compound 32] | BRCA
69 | 53 (KQALSLVRK; listed as Homo sapiens) [compound 53] | CCC, CRC, HNSCC, UEC
70 | 43 (TVYDSIWCNMK; listed as Homo sapiens) [compound 43] | UEC
71 | 83 (KLADSVMAGK; listed as Homo sapiens) [compound 83] | BRCA, CRC, GBM, SCLC

Same assay, conditions: cancer entities on which the peptide was found presented (Table 8b)

Row | Substance | Peptide Presentation on cancer entities
72 | 264 (VIFDAVTEQ; listed as Homo sapiens) [compound 264] | GBM, HCC, MEL, NHL, NSCLCother, OSCAR, RCC, UBC
73 | 253 (KLSLSHKK; listed as Homo sapiens) [compound 253] | CRC, MEL, NSCLCadeno
74 | 252 (AVYNYPEGAAY; listed as Homo sapiens) [compound 252] | UEC
75 | 267 (VLKSITVKV; listed as Homo sapiens) [compound 267] | HCC, MEL, NSCLCsquam
76 | 259 (RSYVPLAH; listed as Homo sapiens) [compound 259] | MEL
77 | 268 (KVDMKDVTKI; listed as Homo sapiens) [compound 268] | BRCA, CRC, GBM, HCC, MEL, NHL, NSCLCadeno, NSCLCother, NSCLCsquam, RCC, UBC, UEC
78 | 269 (KITDFNNIR; listed as Homo sapiens) [compound 269] | AML, BRCA, GBC, GBM, HCC, HNSCC, MEL, NHL, NSCLCadeno, OC, OSCAR, PACA, RCC, UEC

— patent US11872270B2, “A*03 restricted peptides for use in immunotherapy against cancers and related methods” (Immatics Biotechnologies GmbH, priority 2018, dated 2024)
